No constants are given. Whether binding was seen depends on the method and setting. In cells and extracts the contact can be indirect. Where a sequence is shown, tags or fusion partners need not be part of it.
Target: V1-Ct-FLAG (FLAG-tagged TRPV1 C terminus) (rat)
Assay: co-IP; HEK 293T cells co-transfected; Nonidet P-40 lysis buffer (20 mM Tris-HCl pH 7.4, 150 mM NaCl, 1 mM EDTA, 1% NP-40); IP with anti-FLAG; washes with buffer containing 0.5 M NaCl; immunoblot with anti-GFP, anti-HA, anti-FLAG

B1: Kvβ1-GFP (protein, UniProt P63143 1-401)
chain: MQVSIACTEHNLKSRNGEDRLLSKQSSNAPNVVNAARAKFRTVAIIARSLGTFTPQHHISLKESTAKQTGMKYRNLGKSGLRVSCLGLGTWVTFGGQISDEVAERLMTIAYESGVNLFDTAEVYAAGKAEVILGSIIKKKGWRRSSLVITTKLYWGGKAETERGLSRKHIIEGLKGSLQRLQLEYVDVVFANRPDSNTPMEEIVRAMTHVINQGMAMYWGTSRWSAMEIMEAYSVARQFNMIPPVCEQAEYHLFQREKVEVQLPELYHKIGVGAMTWSPLACGIISGKYGNGVPESSRASLKCYQWLKERIVSEEGRKQQNKLKDLSPIAERLGCTLPQLAVAWCLRNEGVSSVLLGSSTPEQLIENLGAIQVLPKMTSHVVNEIDNILRNKPYSKKDYRS
- binding: no binding
